From patent US20240197722A1, “ANTICANCER COMPOSITION INDUCING CELL SENESCENCE AND CELL DEATH” (OSTEONEUROGEN INC., priority 2021, published 2024) come the findings set out here.

Common to all, as to format: cell-based
Assay [1] deals with MCF7. The assay can be described thus: CCK-8 cell proliferation assay in MCF7 cells. Conditions: Homo sapiens; MCF7, CCK-8, 72 hours. As to the method: (§1) H358 cells were seeded in 96-well plates at a concentration of 3×10^4 cells/well for 24 hours.
(§2) The experimental method was carried out in the same manner as described in Example 2 except for the cells used and the positive control reagent.
A general note: Tetrazolium assays rely on reduction of a dye to a coloured formazan, in cell work by metabolically active cells.

The test system of assay [2] is PC3. The assay can be described thus: CCK-8 cell proliferation assay in PC3 cells. The following applies: Homo sapiens, PC-3; PC3, CCK-8, 72 hours. As for the experimental part:
as §1, §2

Assay [3] deals with PC3 cells. Nature of the assay: Caspase-3/7 activity (apoptosis) in PC3 cells. The following applies: Homo sapiens, PC-3; PC3, Caspase-3/7 activity. As to the method: Caspase-3/7 activity was measured by using a Caspase-3/7 assay kit (Promega, G8091). […] Thereafter, protein was measured with BCA (Thermo, 23227), and the protein was adjusted to 50 μg per 50 μL of cell lysis buffer. Afterwards, Caspase-3/7 activity was analyzed according to the manufacturer's protocol.

For assay [4], the system named is NHLF cells. Nature of the assay: Mitochondrial membrane potential (MTMP) analysis in NHLF. Conditions: Homo sapiens, read-out: MTMP: IC 50. As for the experimental part: (i) Mitochondrial membrane potential analysis was performed in the same manner as in Example 1.
The test system of assay [5] is NHLF cells. Nature of the assay: LDH cytotoxicity assay in NHLF. Conditions: Homo sapiens, read-out: LDH: EC 50. As to the method:
(iii) LDH cytotoxicity assay detected LDH release by using an LDH assay kit (Abcam, ab56393). […] Absorbance values were measured at 450 nm in a microplate reader.

For the compound `O=C(CCCCCCC(=O)Nc1ccccc1)NO` [SAHA, suberoylanilide hydroxamic acid, reference compound], the IC50 in assay [1] stood at 11.2 µM; in assay [2], 3.84 µM; in assay [4], 22.4 µM. In addition, the EC50 is 13.5 µM in assay [3] and 115 µM in assay [5].
